Measured data: PubChem BioAssay AID743454 (Peter MacCallum Cancer Centre, 2014)
Assay: 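Search for knock-downs that restore vorinostat killing in resistant colon cancer cells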 (primary screen). Cell system: human HCT116-VR colon cancer cells, selected for vorinostat resistance. Reagents: siRNA pool against human genes, 40 nM siRNA pool. Time to read-out: vorinostat for 24 h, read-out about 72 h after transfection. Conditions: vorinostat at 2.5 µM final. Detection: 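Cell viability by CellTiter-Fluor and caspase 3/7 activity by luminescence, each scaled to mock wells per plate, duplicates averaged, then robust z-scored over all plates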. Direction: viability robust z-score: higher = more viable cells than screen typical; caspase robust z-score: higher = more caspase 3/7 activity than screen typical. Call rule: 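Hits are knock-downs in viability class RV1/RV2 or caspase class CA1/CA2, excluding ones that killed cells in the no-drug cell-count arm; hits then retested with single siRNAs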.
In all, the deposit lists about 18,000 reagents; this is a part drawn at random. Of all reagents, 450 (2.5%) got an active call. 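Single biological run; no consistent viability z cut-off exists, so the class columns, not z-scores, define the calls.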 The numbers tell different reagents against one gene apart.

Target gene	reagent	viability hit class	caspase hit class	viability robust z-score	caspase robust z-score	Call
RPS7 (ribosomal protein S7)	1	RV2 (reduced viability)	no change	-4.75	-1.68	active
LRP6 (LDL receptor related protein 6)	1	no change	no change	1.66	0.55	inactive
MED23 (mediator complex subunit 23)	1	no change	no change	0.12	-0.92	inactive
COCH (cochlin)	1	no change	no change	0.39	-0.51	inactive
TUBG1 (tubulin gamma 1)	1	no change	no change	-1.52	4.04	inactive
BPTF (bromodomain PHD finger transcription factor)	1	no change	no change	-1.77	3.3	inactive
IRAG2 (inositol 1,4,5-triphosphate receptor associated 2)	1	no change	no change	1.15	-0.75	inactive
ASPNAT (aspartate N-acetyltransferase)	1	no change	no change	-2.87	2.75	inactive
HACD2 (3-hydroxyacyl-CoA dehydratase 2)	1	no change	no change	-0.22	-0.22	inactive
SYT2 (synaptotagmin 2)	1	no change	no change	0.89	0.17	inactive
GZMK (granzyme K)	1	no change	no change	0.05	-0.22	inactive
VGF (VGF nerve growth factor inducible)	1	no change	no change	-0.14	-0.18	inactive
PPP1R36 (protein phosphatase 1 regulatory subunit 36)	1	no change	no change	-0.7	-0.38	inactive
SETDB2 (SET domain bifurcated histone lysine methyltransferase 2)	1	no change	no change	0.71	0.64	inactive
XPNPEP1 (X-prolyl aminopeptidase 1)	1	no change	no change	0.5	0.6	inactive
ZBED8 (zinc finger BED-type containing 8)	1	no change	no change	-1.53	-0.89	inactive
RLN2 (relaxin 2)	1	no change	no change	-0.02	-0.5	inactive
CNKSR3 (CNKSR family member 3)	1	no change	no change	0.31	0.78	inactive
RREB1 (ras responsive element binding protein 1)	1	no change	no change	0.49	-0.48	inactive
COQ9 (coenzyme Q9)	1	no change	no change	0.59	0.97	inactive
DDX39A (DExD-box helicase 39A)	1	no change	no change	-1.64	0.18	inactive
NECAP1 (NECAP endocytosis associated 1)	1	no change	no change	0.82	0.66	inactive
POU2F1 (POU class 2 homeobox 1)	1	no change	no change	1.33	-0.94	inactive
DPYSL3 (dihydropyrimidinase like 3)	1	no change	no change	1.84	-0.1	inactive
MROH7 (maestro heat like repeat family member 7)	1	no change	no change	-0.37	-0.4	inactive
PRRG2 (proline rich and Gla domain 2)	1	no change	no change	0.17	0	inactive
SLC17A1	1	no change	no change	0.84	-0.44	inactive
SPANXD (SPANX family member D)	1	no change	no change	-4.15	-0.53	inactive
SPANXD (SPANX family member D)	2	no change	no change	-4.11	-0.9	inactive
NHLH2 (nescient helix-loop-helix 2)	1	no change	no change	-0.7	-0.99	inactive
GCN1 (GCN1 activator of EIF2AK4)	1	no change	no change	-0.63	0.64	inactive
FSHR (follicle stimulating hormone receptor)	1	no change	no change	-1.39	4.54	inactive
TXLNA (taxilin alpha)	1	no change	no change	0.23	0.12	inactive
CC2D2A (coiled-coil and C2 domain containing 2A)	1	no change	no change	0.42	3.49	inactive
STPG3 (sperm-tail PG-rich repeat containing 3)	1	no change	no change	-1.82	1.66	inactive
LHB (luteinizing hormone subunit beta)	1	no change	no change	-0.6	-0.88	inactive
ZNF665 (zinc finger protein 665)	1	no change	no change	-0.71	-1.23	inactive
HARBI1 (harbinger transposase derived 1)	1	no change	no change	0.44	-1.1	inactive
SPATA31A7 (SPATA31 subfamily A member 7)	1	no change	no change	-0.1	0.26	inactive
GSR (glutathione-disulfide reductase)	1	no change	no change	-0.02	1.68	inactive
RAB3C (RAB3C, member RAS oncogene family)	1	no change	no change	-0.01	-1	inactive
CKM (creatine kinase, M-type)	1	no change	no change	-2.04	1.48	inactive
PANX3 (pannexin 3)	1	no change	no change	-0.56	0.07	inactive
HAPLN3 (hyaluronan and proteoglycan link protein 3)	1	no change	no change	0.3	-0.76	inactive
RAB3IL1 (RAB3A interacting protein like 1)	1	no change	no change	0.93	0.77	inactive
UCHL5 (ubiquitin C-terminal hydrolase L5)	1	no change	no change	0.51	-0.59	inactive
RAD9B (RAD9 checkpoint clamp component B)	1	no change	no change	-0.52	1.74	inactive
DEFB128 (defensin beta 128)	1	no change	no change	-0.13	-0.94	inactive
FERMT1 (FERM domain containing kindlin 1)	1	no change	no change	0.42	0.62	inactive
UBALD2 (UBA like domain containing 2)	1	no change	no change	0.46	-0.3	inactive
RPS20 (ribosomal protein S20)	1	no change	no change	-6.38	-1.61	inactive
BCR (BCR activator of RhoGEF and GTPase)	1	no change	no change	-2.16	1.82	inactive
PDE10A (phosphodiesterase 10A)	1	no change	no change	1.16	-0.7	inactive
GAL3ST3 (galactose-3-O-sulfotransferase 3)	1	no change	no change	-0.36	-0.18	inactive
CCKBR (cholecystokinin B receptor)	1	no change	no change	-0.36	-0.66	inactive
KIR2DL1	1	no change	CA1 (caspase activation)	-2.41	7.7	active
DPY19L3 (dpy-19 like C-mannosyltransferase 3)	1	no change	no change	-0.55	0.82	inactive
